Reference: patent publication US20230295227A1 (ANTAROS TRACER AB, priority 2020, published 2023)
HELM strings list residues between dots; [ac] is acetyl, [am] amide, other brackets name non-standard units.

Experiment: general procedure: Fmoc solid-phase peptide synthesis; Rink Amide AM resin (0.64 mmol/g) for C-terminal amides; preloaded Wang resin (0.50 mmol/g) for C-terminal acids; HBTU/NMM; PyBOP/DIEA or HBTU/DIEA for linker and chelator; DIC/Oxyma for Compoun
Conditions: whole synthesis, analytical RP-HPLC, UV 214 nm trace, scale of the general procedure approximately 30 μmol

Going from “DOTA-NH—(CH2CH2O)3—CH2—C(O)-L-R-E-L-H-L-N—N—N—OH” to DOTA-L-R-E-L-H-L-N—N—N—OH, the “final HPLC purity” value rises from 98.7% to 99.3%.

First: PEPTIDE1{[DOTA].[O2Oc].L.R.E.L.H.L.N.A.N.[am]}$$$$V2.0
Second: PEPTIDE1{[DOTA].[O2Oc].L.R.E.L.H.L.N.N.N}$$$$V2.0
The “final HPLC purity” value of the first is higher: 100% for the first, 95% for the second.

Compared with “H2N-L-R-E-L-H-L-N—N—N—K(DOTA-NH—(CH2CH2O)2—CH2—C(O))—NH2”, “DOTA-NH—(CH2CH2O)2—CH2—C(O)-L-R-E-L-H—V-N—N—N—OH” is higher in “final HPLC purity” value: 95.1% for the first, 98.7% for the second.

First: PEPTIDE1{[DOTA].[O2Oc].L.R.E.L.H.L.N.N.N.[am]}$$$$V2.0
Second: DOTA-NH—(CH2CH2O)2—CH2—C(O)-L-R-E-L-H-L-N—N-n-OH
The “final HPLC purity” value of the first is higher: 99.1% for the first, 89.3% for the second.

Going from “PEPTIDE1{[DOTA].[O2Oc].L.R.E.L.H.L.N.A.N}$$$$V2.0” to “NOTA-NH—(CH2CH2O)2-CH2—C(O)-LRELHLNNN—OH”, the “final HPLC purity” value falls from 98.1% to 95%.
